Taken from: PubChem BioAssay AID1508597 (Cure First, 2020)
This is an unselected part of the about 2,100 reagents, in one setting of the screen. 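Calls flag viability under 80% in either arm, not effects specific to rucaparib; the reference for percent is not stated.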 Unmarked entries are inactive. A reagent listed more than once was tested more than once; the source does not tell the runs apart. Reagent sequences are not shown. Not given: the 100% reference.

Purpose: 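Knock-downs altering ovarian cancer cell survival with or without PARP inhibitor rucaparib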 (primary screen)
Cell system: human ovarian carcinoma lines grown from tumours: OCI-P5x (papillary serous) and OCI-C5x (clear cell)
Reagents: siRNA pool against human genes, 1.25 pmol siRNA per well
Timing: 72 h or 96 h, depending on the cell culture
Treatment: rucaparib 20 µM (about IC30) or vehicle, present until read-out
Rucaparib or vehicle: Vehicle
Cell line: OCI-P5x (serous)
Measured: 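ATP luminescence measured at 72 or 96 h according to the culture, then normalised and expressed as percent viability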
Reading the numbers: viability, normalised: higher = more viable cells remaining
Hit rule: 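a well counts as a hit if its normalised viability is under 80 percent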
Calls: active = viability under 80%; inactive = viability 80% or more

| target gene | technical replicate | viability, normalised (%) |
| --- | --- | --- |
| HIPK4 (homeodomain interacting protein kinase 4) | 1 | 84 |
| HIPK4 (homeodomain interacting protein kinase 4) | 2 | 73.4 (active) |
| HIPK4 (homeodomain interacting protein kinase 4) | 3 | 103 |
| ING3 (inhibitor of growth family member 3) | 1 | 72.2 (active) |
| ING3 (inhibitor of growth family member 3) | 2 | 74.3 (active) |
| ING3 (inhibitor of growth family member 3) | 3 | 85 |
| ITPKA (inositol-trisphosphate 3-kinase A) | 1 | 75.2 (active) |
| ITPKA (inositol-trisphosphate 3-kinase A) | 2 | 58.9 (active) |
| ITPKA (inositol-trisphosphate 3-kinase A) | 3 | 67 (active) |
| MED28 (mediator complex subunit 28) | 1 | 65.3 (active) |
| MED28 (mediator complex subunit 28) | 2 | 74.5 (active) |
| MED28 (mediator complex subunit 28) | 3 | 58.2 (active) |
| DDB1 (damage specific DNA binding protein 1) | 1 | 60.6 (active) |
| DDB1 (damage specific DNA binding protein 1) | 1 | 72.4 (active) |
| DDB1 (damage specific DNA binding protein 1) | 2 | 71.3 (active) |
| DDB1 (damage specific DNA binding protein 1) | 2 | 65 (active) |
| DDB1 (damage specific DNA binding protein 1) | 3 | 73.4 (active) |
| DDB1 (damage specific DNA binding protein 1) | 3 | 59.9 (active) |
| FANCB (FA complementation group B) | 1 | 76.2 (active) |
| FANCB (FA complementation group B) | 2 | 76.8 (active) |
| FANCB (FA complementation group B) | 3 | 75.6 (active) |
| CSNK2A1 (casein kinase 2 alpha 1) | 1 | 61 (active) |
| CSNK2A1 (casein kinase 2 alpha 1) | 1 | 107 |
| CSNK2A1 (casein kinase 2 alpha 1) | 2 | 73.9 (active) |
| CSNK2A1 (casein kinase 2 alpha 1) | 2 | 119 |
| CSNK2A1 (casein kinase 2 alpha 1) | 3 | 110 |
| CSNK2A1 (casein kinase 2 alpha 1) | 3 | 83.3 |
| TAF6L (TATA-box binding protein associated factor 6 like) | 1 | 73 (active) |
| TAF6L (TATA-box binding protein associated factor 6 like) | 2 | 58.1 (active) |
| TAF6L (TATA-box binding protein associated factor 6 like) | 3 | 93 |
| DCLK3 (doublecortin like kinase 3) | 1 | 94.8 |
| DCLK3 (doublecortin like kinase 3) | 2 | 90.7 |
| DCLK3 (doublecortin like kinase 3) | 3 | 87.2 |
| MTRF1L (mitochondrial translation release factor 1 like) | 1 | 37.9 (active) |
| MTRF1L (mitochondrial translation release factor 1 like) | 2 | 50.3 (active) |
| MTRF1L (mitochondrial translation release factor 1 like) | 3 | 59 (active) |
| FANCI (FA complementation group I) | 1 | 64.7 (active) |
| FANCI (FA complementation group I) | 2 | 65.1 (active) |
| FANCI (FA complementation group I) | 3 | 69.4 (active) |
| MSH3 (mutS homolog 3) | 1 | 101 |
| MSH3 (mutS homolog 3) | 2 | 87.8 |
| MSH3 (mutS homolog 3) | 3 | 93.7 |
| PRDM5 (PR/SET domain 5) | 1 | 69.1 (active) |
| PRDM5 (PR/SET domain 5) | 2 | 76.3 (active) |
| PRDM5 (PR/SET domain 5) | 3 | 144 |
| RECQL (RecQ like helicase) | 1 | 76 (active) |
| RECQL (RecQ like helicase) | 1 | 67.7 (active) |
| RECQL (RecQ like helicase) | 2 | 62.5 (active) |
| RECQL (RecQ like helicase) | 2 | 59 (active) |
| RECQL (RecQ like helicase) | 3 | 74.5 (active) |
| RECQL (RecQ like helicase) | 3 | 83.3 |
| TAF10 (TATA-box binding protein associated factor 10) | 1 | 56.9 (active) |
| TAF10 (TATA-box binding protein associated factor 10) | 2 | 48.5 (active) |
| TAF10 (TATA-box binding protein associated factor 10) | 3 | 71.7 (active) |
| PRKG2 (protein kinase cGMP-dependent 2) | 1 | 102 |
| PRKG2 (protein kinase cGMP-dependent 2) | 2 | 82.7 |
| PRKG2 (protein kinase cGMP-dependent 2) | 3 | 107 |
